Experimental data: article PMC5245905
Results are given in words; binding and its absence hold for the method and conditions named. In cells and extracts the contact can be indirect. Some binding calls cover weakened binding; strength is not graded here.

Chains of the proteins cited; added tags and fusions are not shown.
UniProt Q7Z2W4: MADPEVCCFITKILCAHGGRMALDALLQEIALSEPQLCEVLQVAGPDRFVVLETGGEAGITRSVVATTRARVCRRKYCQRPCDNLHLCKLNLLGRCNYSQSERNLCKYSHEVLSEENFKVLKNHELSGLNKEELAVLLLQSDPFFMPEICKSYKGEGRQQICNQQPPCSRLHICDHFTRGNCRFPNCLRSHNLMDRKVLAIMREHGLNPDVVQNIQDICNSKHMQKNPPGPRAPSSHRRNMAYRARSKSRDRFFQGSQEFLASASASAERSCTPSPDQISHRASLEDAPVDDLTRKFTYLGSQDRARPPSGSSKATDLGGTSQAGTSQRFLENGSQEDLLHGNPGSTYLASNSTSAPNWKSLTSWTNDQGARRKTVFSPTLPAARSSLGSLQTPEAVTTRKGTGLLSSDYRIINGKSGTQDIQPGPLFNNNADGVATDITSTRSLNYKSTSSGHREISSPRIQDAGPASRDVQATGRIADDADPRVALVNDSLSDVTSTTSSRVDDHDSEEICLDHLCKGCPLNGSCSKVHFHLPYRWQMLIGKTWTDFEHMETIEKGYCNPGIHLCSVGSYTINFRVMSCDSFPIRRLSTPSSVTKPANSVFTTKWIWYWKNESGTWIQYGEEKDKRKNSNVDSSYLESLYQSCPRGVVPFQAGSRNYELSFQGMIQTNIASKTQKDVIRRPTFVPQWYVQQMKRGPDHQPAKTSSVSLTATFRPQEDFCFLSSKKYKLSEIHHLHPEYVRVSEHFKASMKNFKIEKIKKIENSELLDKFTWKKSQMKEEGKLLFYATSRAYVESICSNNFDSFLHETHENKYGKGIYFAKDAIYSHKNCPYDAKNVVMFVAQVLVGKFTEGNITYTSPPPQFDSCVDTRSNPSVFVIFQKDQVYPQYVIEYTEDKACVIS
UniProt Q14258: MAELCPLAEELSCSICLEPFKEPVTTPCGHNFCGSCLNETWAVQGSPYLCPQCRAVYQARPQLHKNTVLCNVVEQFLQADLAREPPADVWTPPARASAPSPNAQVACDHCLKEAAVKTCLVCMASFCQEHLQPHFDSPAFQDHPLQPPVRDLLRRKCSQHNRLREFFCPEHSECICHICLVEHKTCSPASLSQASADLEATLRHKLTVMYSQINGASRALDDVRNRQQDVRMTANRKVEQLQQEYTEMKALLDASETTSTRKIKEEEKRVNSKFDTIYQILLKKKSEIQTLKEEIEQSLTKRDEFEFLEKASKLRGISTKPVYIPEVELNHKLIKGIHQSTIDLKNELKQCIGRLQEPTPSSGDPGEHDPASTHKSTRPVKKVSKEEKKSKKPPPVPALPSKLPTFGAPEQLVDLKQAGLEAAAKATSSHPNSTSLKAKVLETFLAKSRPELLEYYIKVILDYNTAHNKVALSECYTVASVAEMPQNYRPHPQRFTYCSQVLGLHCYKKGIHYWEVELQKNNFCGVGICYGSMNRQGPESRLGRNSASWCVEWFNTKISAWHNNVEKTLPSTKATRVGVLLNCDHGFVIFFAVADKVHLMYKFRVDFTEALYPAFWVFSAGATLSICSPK

Molecular target: long isoform of human ZAP (ZAPL) (human) (UniProt Q7Z2W4)
Experiment: co-IP; overexpressed proteins in ZC3HAV1-knockout 293T; 0.5% NP40 buffer (10 mM HEPES pH 7.5, 150 mM KCl, 3 mM MgCl2); IP of ZAP with anti-NZAP antibody crosslinked to Protein A Dynabeads, 4 C, 4 h; immunoblot

- binding: binds
Substance: V5-tagged full-length (FL) TRIM25 (from UniProt Q14258 1-630)
